# System: MDA-MB-231 cells
# Test: MTT anti-proliferative assay
# Format: cell-based
# Details: not affected by light irradiation
# Protocol: Subsequently, the anti-proliferative properties of TPECB-Pt-D5-cRGD towards MDA-MB-231 cells, U87-MG cells, MCF-7 cells and 293T cells were evaluated by MTT assays. The MDA-MB-231 cells are cisplatin resistant while U87-MG cells are cisplatin-sensitive. […] It should be noted that the cytotoxicity of cisplatin to both cells was not affected by the light irradiation.
smiles,measurement,value
N.N.[Cl][Pt][Cl] [cisplatin],IC50,33.4 µM
